Measurements published in PMC6270305 (Molecules, 2013).
Some peptides are written in HELM: one residue between dots, names in brackets for other building blocks, links after the first $.

Experiment: peptide synthesis
Conditions: whole synthesis
In the case of “PEPTIDE1{A.G.C.K.N.F.F.W.K.T.[Msa].T.S.C}$PEPTIDE1,PEPTIDE1,3:R3-14:R3$$$V2.0”, the crude yield was 44% and the “final HPLC purity” value was 99%.
In the case of “PEPTIDE1{A.G.C.K.N.[Msa].F.W.K.T.F.T.S.C}$PEPTIDE1,PEPTIDE1,3:R3-14:R3$$$V2.0”, the crude yield was 60% and the “final HPLC purity” value was 95%.
In the case of “PEPTIDE1{A.G.C.K.N.[Msa].[Msa].W.K.T.[Msa].T.S.C}$PEPTIDE1,PEPTIDE1,3:R3-14:R3$$$V2.0”, the crude yield was 44% and the “final HPLC purity” value was 95%.
For [L-Msa6,7]-SRIF, the crude yield was 20% and the “final HPLC purity” value was 98%.
With [L-Msa6,11]-SRIF the crude yield was 44% and the “final HPLC purity” value was 99%.
With [L-Msa7,11]-SRIF the crude yield was 44% and the “final HPLC purity” value was 99%.
